For eleven molecules, binding results are on record in paper PMC6274781.

The chains behind the UniProt entries cited, without tags or fusion partners. Where a name states a change or a piece, a line headed by the entry shows the natural chain unless it says otherwise.
UniProt P49597: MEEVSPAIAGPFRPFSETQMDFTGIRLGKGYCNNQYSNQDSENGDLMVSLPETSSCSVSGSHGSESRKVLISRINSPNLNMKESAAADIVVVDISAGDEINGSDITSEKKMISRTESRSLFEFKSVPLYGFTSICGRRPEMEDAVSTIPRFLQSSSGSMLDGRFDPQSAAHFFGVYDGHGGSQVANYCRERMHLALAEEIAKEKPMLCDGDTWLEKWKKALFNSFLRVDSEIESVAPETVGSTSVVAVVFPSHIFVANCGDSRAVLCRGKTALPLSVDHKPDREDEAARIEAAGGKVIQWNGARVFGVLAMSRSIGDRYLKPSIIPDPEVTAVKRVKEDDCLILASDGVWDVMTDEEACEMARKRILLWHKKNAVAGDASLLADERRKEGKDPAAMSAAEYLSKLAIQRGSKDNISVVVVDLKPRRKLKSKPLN
UniProt Q6NPF9: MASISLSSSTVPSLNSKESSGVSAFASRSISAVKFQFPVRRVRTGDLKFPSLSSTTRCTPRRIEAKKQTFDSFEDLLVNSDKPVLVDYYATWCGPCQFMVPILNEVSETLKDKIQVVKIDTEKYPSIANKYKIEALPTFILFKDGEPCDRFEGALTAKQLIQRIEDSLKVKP
UniProt Q9M7X9: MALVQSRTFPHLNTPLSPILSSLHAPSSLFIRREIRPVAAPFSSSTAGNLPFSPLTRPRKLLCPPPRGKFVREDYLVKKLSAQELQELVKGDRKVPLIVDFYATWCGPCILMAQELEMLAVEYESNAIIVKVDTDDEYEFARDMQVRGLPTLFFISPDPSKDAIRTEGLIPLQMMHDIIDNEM
UniProt Q41931: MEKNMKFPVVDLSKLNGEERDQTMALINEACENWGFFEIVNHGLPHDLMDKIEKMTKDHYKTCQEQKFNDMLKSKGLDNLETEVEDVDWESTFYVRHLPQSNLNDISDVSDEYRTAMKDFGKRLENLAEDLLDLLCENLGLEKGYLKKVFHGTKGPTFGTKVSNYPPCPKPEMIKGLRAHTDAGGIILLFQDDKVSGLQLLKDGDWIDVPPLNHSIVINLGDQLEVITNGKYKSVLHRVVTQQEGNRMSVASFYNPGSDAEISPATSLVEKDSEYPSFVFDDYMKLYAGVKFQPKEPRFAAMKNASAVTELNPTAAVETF
UniProt Q06588: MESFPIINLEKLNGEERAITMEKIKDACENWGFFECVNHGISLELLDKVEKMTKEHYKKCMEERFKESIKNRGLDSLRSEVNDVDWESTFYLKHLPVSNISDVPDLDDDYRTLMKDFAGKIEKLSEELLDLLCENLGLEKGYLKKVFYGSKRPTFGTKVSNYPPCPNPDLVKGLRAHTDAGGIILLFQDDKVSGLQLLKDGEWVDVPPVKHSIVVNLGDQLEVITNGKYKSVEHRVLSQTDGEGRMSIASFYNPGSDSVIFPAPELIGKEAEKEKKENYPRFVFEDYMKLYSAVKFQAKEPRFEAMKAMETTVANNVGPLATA

Where two headings read alike, the source gives them in different places. Results are given in words; binding and its absence hold for the method and conditions named. For some of these results: A result given as binding can be weak or reduced; the word gives no strength.

What all share (assay): two-hybrid; yeast strain Y2H Gold; RcGPXs as bait, Arabidopsis genes as prey (pGBKT7 and pGADT7 vectors); growth on SD-Trp-Leu-His solid media, SD-Trp-Leu as control; empty vectors as negative control
Assay [1] has as its target Rhodiola crenulata glutathione peroxidase RcGPX2 (Rhodiola crenulata).
For assay [2], the target named is Rhodiola crenulata glutathione peroxidase RcGPX4 (Rhodiola crenulata).
For assay [3], the target named is Rhodiola crenulata glutathione peroxidase RcGPX5 (Rhodiola crenulata).
In assay [4] the target is Rhodiola crenulata glutathione peroxidase RcGPX7 (Rhodiola crenulata).
Assay [5] addresses Rhodiola crenulata glutathione peroxidase RcGPX8 (Rhodiola crenulata).
In assay [6] the target is Rhodiola crenulata glutathione peroxidase RcGPX2 (Rhodiola crenulata). The source holds these as a separate data set.
Assay [7] deals with Rhodiola crenulata glutathione peroxidase RcGPX4 (Rhodiola crenulata). This is another data set of the same source.
Assay [8] concerns the target Rhodiola crenulata glutathione peroxidase RcGPX5 (Rhodiola crenulata). The source holds these as a separate data set.
Assay [9] concerns the target Rhodiola crenulata glutathione peroxidase RcGPX7 (Rhodiola crenulata). The source holds these as a separate data set.
Assay [10] has as its target Rhodiola crenulata glutathione peroxidase RcGPX8 (Rhodiola crenulata). The source holds these as a separate data set.

Turning to AtABI1 (from UniProt P49597 1-434), the binding result in [1], in [2], in [3], in assay [4] and in assay [5] was “no binding” in each case.

Turning to AtTrx1 (from UniProt Q6NPF9), the binding result in [1] is reported as “no binding”; in assay [2], “no binding”; in assay [3], “no binding”; in [4] it was “no binding”; in assay [5], “binds”.

As to AtTrxz (from UniProt Q9M7X9), the binding result is “no binding” in assay [1]; “binds” in assay [2]; “binds” in [3]; “binds” in assay [4]; “binds” in assay [5].

As for AtACO2 (from UniProt Q41931 1-320), the binding entry in [1], in assay [2], in [3], in assay [4] and in [5] was “no binding” in each case.

As to AtACO4 (from UniProt Q06588 1-323), the binding result in assay [1], in assay [2], in assay [3], in [4] and in [5] was “no binding” in each case.

Regarding “AtABI2, 2C-type protein phosphatase ABA …2 (from UniProt O04719 1-423)”, the binding entry in [1] is “no binding”; in [2], “no binding”; in [3], “binds”; in [4], “binds”; in assay [5], “no binding”.

B1: MYB (v-myb avian myeloblastosis viral oncogene homolog) transcription factor (AtMYB2) (protein, UniProt Q39028 1-273)
chain: MEDYERINSNSPTHEEDSDVRKGPWTEEEDAILVNFVSIHGDARWNHIARSSGLKRTGKSCRLRWLNYLRPDVRRGNITLEEQFMILKLHSLWGNRWSKIAQYLPGRTDNEIKNYWRTRVQKQAKHLRCDVNSNLFKETMRNVWMPRLVERINAQSLPTTCEQVESMITDPSQPVNEPSPVEPGFVQFSQNHHQQFVPATELSATSSNSPAETFSDVRGGVVNGSGYDPSGQTGFGEFNDWGCVGGDNMWTDEESFWFLQDQFCPDTTSYSYN
In the case of B1, the binding result in assay [6], in assay [7], in assay [8], in assay [9] and in assay [10] was “no binding” in each case.

B2: AtABI5 (protein, UniProt Q9SJN0 1-442)
chain: MVTRETKLTSEREVESSMAQARHNGGGGGENHPFTSLGRQSSIYSLTLDEFQHALCENGKNFGSMNMDEFLVSIWNAEENNNNQQQAAAAAGSHSVPANHNGFNNNNNNGGEGGVGVFSGGSRGNEDANNKRGIANESSLPRQGSLTLPAPLCRKTVDEVWSEIHRGGGSGNGGDSNGRSSSSNGQNNAQNGGETAARQPTFGEMTLEDFLVKAGVVREHPTNPKPNPNPNQNQNPSSVIPAAAQQQLYGVFQGTGDPSFPGQAMGVGDPSGYAKRTGGGGYQQAPPVQAGVCYGGGVGFGAGGQQMGMVGPLSPVSSDGLGHGQVDNIGGQYGVDMGGLRGRKRVVDGPVEKVVERRQRRMIKNRESAARSRARKQAYTVELEAELNQLKEENAQLKHALAELERKRKQQYFESLKSRAQPKLPKSNGRLRTLMRNPSCPL
Turning to B2, the binding entry in [6], in assay [7], in assay [8], in [9] and in assay [10] was “no binding” throughout.

B3: AtACO5 (protein, UniProt Q0WPW4 1-307)
chain: MAIPVIDFSKLNGEEREKTLSEIARACEEWGFFQLVNHGIPLELLNKVKKLSSDCYKTEREEAFKTSNPVKLLNELVQKNSGEKLENVDWEDVFTLLDHNQNEWPSNIKETMGEYREEVRKLASKMMEVMDENLGLPKGYIKKAFNEGMEDGEETAFFGTKVSHYPPCPHPELVNGLRAHTDAGGVVLLFQDDEYDGLQVLKDGEWIDVQPLPNAIVINTGDQIEVLSNGRYKSAWHRVLAREEGNRRSIASFYNPSYKAAIGPAAVAEEEGSEKKYPKFVFGDYMDVYANQKFMPKEPRFLAVKSL
Turning to B3, the binding entry in assay [6], in assay [7], in assay [8], in assay [9] and in [10] was “no binding” throughout.

B4: AtCYP707A2 (protein, UniProt O81077 1-482)
chain: MQISSSSSSNFFSSLYADEPALITLTIVVVVVVLLFKWWLHWKEQRLRLPPGSMGLPYIGETLRLYTENPNSFFATRQNKYGDIFKTHILGCPCVMISSPEAARMVLVSKAHLFKPTYPPSKERMIGPEALFFHQGPYHSTLKRLVQSSFMPSALRPTVSHIELLVLQTLSSWTSQKSINTLEYMKRYAFDVAIMSAFGDKEEPTTIDVIKLLYQRLERGYNSMPLDLPGTLFHKSMKARIELSEELRKVIEKRRENGREEGGLLGVLLGAKDQKRNGLSDSQIADNIIGVIFAATDTTASVLTWLLKYLHDHPNLLQEVSREQFSIRQKIKKENRRISWEDTRKMPLTTRVIQETLRAASVLSFTFREAVQDVEYDGYLIPKGWKVLPLFRRIHHSSEFFPDPEKFDPSRFEVAPKPYTYMPFGNGVHSCPGSELAKLEMLILLHHLTTSFRWEVIGDEEGIQYGPFPVPKKGLPIRVTPI
Regarding B4, the binding result in assay [6], in assay [7], in [8], in assay [9] and in assay [10] was “no binding” throughout.

B5: AtSNF4 (protein, UniProt Q944A6 1-487)
chain: MFGSTLDSSRGNSAASGQLLTPTRFVWPYGGRRVFLSGSFTRWTEHVPMSPLEGCPTVFQVICNLTPGYHQYKFFVDGEWRHDEHQPFVSGNGGVVNTIFITGPDMVPAGFSPETLGRSNMDVDDVFLRTADPSQEAVPRMSGVDLELSRHRISVLLSTRTAYELLPESGKVIALDVNLPVKQAFHILYEQGIPLAPLWDFGKGQFVGVLGPLDFILILRELGTHGSNLTEEELETHTIAAWKEGKAHISRQYDGSGRPYPRPLVQVGPYDNLKDVALKILQNKVAAVPVIYSSLQDGSYPQLLHLASLSGILKCICRYFRHSSSSLPILQQPICSIPLGTWVPRIGESSSKPLATLRPHASLGSALALLVQAEVSSIPVVDDNDSLIDIYSRSDITALAKDKAYAQIHLDDMTVHQALQLGQDASPPYGIFNGQRCHMCLRSDSLVKVMERLANPGVRRLVIVEAGSKRVEGIISLSDVFQFLLGL
As for B5, the binding result in assay [6], in [7], in [8], in assay [9] and in assay [10] was “no binding” in each case.
